# Data: publication PMC8532385
# No constants are given. Whether binding was seen depends on the method and setting. Binding seen in cells or lysates may run through a third protein. Tags and fused reporters may be left off the sequences shown.
# T1: MIEF1^Δ109-154 (V5-tagged, self-association-deficient mutant) (human) (UniProt Q9NQG6)
# T1 sequence: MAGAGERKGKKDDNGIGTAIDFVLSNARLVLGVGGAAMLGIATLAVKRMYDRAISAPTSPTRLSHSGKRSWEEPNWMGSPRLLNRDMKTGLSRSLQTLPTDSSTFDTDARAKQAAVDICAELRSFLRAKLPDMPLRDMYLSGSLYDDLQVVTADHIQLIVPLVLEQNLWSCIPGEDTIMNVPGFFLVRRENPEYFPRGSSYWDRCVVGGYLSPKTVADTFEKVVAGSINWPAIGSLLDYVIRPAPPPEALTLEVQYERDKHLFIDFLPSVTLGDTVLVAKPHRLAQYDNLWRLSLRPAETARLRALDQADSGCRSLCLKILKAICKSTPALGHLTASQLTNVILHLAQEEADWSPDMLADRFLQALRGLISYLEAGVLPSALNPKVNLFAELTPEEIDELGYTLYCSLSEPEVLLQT
# T2: MIEF2^Δ50-104 (V5-tagged, self-association-deficient mutant) (human) (UniProt Q96C03)
# T2 sequence: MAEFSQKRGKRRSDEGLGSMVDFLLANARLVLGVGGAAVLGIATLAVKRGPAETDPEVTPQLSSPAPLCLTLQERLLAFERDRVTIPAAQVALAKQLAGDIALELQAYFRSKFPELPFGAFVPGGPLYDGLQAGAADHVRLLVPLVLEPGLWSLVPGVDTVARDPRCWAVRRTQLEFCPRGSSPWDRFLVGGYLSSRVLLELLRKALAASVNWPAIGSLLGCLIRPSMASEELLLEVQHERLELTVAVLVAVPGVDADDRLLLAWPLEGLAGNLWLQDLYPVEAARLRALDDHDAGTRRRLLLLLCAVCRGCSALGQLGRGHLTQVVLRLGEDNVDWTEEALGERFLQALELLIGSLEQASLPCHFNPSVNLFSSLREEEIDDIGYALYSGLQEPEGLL
# How the values were obtained:
# [1] = molecular target: T1, MIEF1^Δ109-154 (V5-tagged, self-association-deficient mutant) (human); experiment: cross-linking; in vivo crosslinking of transfected cells with 1 mM DSS in PBS, 1 h at room temperature (DMSO as control), stopped with 20 mM Tris pH 7.5; Western blot (Figure S7b, d)
# [2] = molecular target: T2, MIEF2^Δ50-104 (V5-tagged, self-association-deficient mutant) (human); experiment: as above
Binder,binding [1],binding [2]
"MIEF1^Δ109-154 (V5-tagged, self-association-deficient mutant) (protein, UniProt Q9NQG6-1) MAGAGERKGKKDDNGIGTAIDFVLSNARLVLGVGGAAMLGIATLAVKRMYDRAISAPTSPTRLSHSGKRSWEEPNWMGSPRLLNRDMKTGLSRSLQTLPTDSSTFDTDARAKQAAVDICAELRSFLRAKLPDMPLRDMYLSGSLYDDLQVVTADHIQLIVPLVLEQNLWSCIPGEDTIMNVPGFFLVRRENPEYFPRGSSYWDRCVVGGYLSPKTVADTFEKVVAGSINWPAIGSLLDYVIRPAPPPEALTLEVQYERDKHLFIDFLPSVTLGDTVLVAKPHRLAQYDNLWRLSLRPAETARLRALDQADSGCRSLCLKILKAICKSTPALGHLTASQLTNVILHLAQEEADWSPDMLADRFLQALRGLISYLEAGVLPSALNPKVNLFAELTPEEIDELGYTLYCSLSEPEVLLQT",no binding,
"MIEF2^Δ50-104 (V5-tagged, self-association-deficient mutant) (protein, UniProt Q96C03-1) MAEFSQKRGKRRSDEGLGSMVDFLLANARLVLGVGGAAVLGIATLAVKRGPAETDPEVTPQLSSPAPLCLTLQERLLAFERDRVTIPAAQVALAKQLAGDIALELQAYFRSKFPELPFGAFVPGGPLYDGLQAGAADHVRLLVPLVLEPGLWSLVPGVDTVARDPRCWAVRRTQLEFCPRGSSPWDRFLVGGYLSSRVLLELLRKALAASVNWPAIGSLLGCLIRPSMASEELLLEVQHERLELTVAVLVAVPGVDADDRLLLAWPLEGLAGNLWLQDLYPVEAARLRALDDHDAGTRRRLLLLLCAVCRGCSALGQLGRGHLTQVVLRLGEDNVDWTEEALGERFLQALELLIGSLEQASLPCHFNPSVNLFSSLREEEIDDIGYALYSGLQEPEGLL",,no binding
